Data as given in the supplement of paper PMC11732987, “Enantioselective OTUD7B fragment discovery through chemoproteomics screening and high-throughput optimisation” (Communications Chemistry, 2025).
Some of the results follow. The data scatter; read single values as rough.

Amino acid sequences for entries named in this document (tags omitted). A change or cut given only in a name is not applied to a line headed by its entry.
UniProt Q9UBN6: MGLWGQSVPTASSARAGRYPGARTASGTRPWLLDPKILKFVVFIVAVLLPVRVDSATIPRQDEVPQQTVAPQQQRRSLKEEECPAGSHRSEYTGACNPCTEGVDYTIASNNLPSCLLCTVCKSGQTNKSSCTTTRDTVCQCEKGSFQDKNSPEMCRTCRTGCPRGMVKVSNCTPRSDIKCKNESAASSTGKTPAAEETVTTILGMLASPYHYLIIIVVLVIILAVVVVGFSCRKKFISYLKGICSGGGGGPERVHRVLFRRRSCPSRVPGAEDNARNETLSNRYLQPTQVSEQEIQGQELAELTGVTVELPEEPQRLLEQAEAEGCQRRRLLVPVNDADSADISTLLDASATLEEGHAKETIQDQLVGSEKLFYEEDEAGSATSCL
UniProt O95985: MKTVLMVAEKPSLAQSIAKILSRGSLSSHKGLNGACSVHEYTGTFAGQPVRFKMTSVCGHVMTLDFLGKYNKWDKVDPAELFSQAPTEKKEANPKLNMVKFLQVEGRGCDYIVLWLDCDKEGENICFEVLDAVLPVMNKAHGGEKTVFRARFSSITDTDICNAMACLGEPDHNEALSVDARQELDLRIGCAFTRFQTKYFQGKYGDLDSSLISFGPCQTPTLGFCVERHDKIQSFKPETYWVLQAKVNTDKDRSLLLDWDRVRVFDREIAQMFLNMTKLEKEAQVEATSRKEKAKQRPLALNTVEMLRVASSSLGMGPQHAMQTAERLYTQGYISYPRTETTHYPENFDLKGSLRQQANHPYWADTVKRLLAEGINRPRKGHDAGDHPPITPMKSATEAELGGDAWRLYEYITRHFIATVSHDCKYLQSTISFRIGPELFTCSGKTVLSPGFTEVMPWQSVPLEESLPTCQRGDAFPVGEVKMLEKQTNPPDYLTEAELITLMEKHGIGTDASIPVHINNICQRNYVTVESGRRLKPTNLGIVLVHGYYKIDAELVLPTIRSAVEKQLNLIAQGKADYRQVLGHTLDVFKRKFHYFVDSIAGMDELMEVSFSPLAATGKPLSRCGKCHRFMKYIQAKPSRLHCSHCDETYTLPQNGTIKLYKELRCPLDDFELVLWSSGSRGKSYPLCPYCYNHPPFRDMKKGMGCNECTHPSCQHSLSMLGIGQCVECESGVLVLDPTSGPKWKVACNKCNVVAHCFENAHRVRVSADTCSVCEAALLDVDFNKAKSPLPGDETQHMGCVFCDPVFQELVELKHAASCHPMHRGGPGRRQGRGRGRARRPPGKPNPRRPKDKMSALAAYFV
UniProt O15417: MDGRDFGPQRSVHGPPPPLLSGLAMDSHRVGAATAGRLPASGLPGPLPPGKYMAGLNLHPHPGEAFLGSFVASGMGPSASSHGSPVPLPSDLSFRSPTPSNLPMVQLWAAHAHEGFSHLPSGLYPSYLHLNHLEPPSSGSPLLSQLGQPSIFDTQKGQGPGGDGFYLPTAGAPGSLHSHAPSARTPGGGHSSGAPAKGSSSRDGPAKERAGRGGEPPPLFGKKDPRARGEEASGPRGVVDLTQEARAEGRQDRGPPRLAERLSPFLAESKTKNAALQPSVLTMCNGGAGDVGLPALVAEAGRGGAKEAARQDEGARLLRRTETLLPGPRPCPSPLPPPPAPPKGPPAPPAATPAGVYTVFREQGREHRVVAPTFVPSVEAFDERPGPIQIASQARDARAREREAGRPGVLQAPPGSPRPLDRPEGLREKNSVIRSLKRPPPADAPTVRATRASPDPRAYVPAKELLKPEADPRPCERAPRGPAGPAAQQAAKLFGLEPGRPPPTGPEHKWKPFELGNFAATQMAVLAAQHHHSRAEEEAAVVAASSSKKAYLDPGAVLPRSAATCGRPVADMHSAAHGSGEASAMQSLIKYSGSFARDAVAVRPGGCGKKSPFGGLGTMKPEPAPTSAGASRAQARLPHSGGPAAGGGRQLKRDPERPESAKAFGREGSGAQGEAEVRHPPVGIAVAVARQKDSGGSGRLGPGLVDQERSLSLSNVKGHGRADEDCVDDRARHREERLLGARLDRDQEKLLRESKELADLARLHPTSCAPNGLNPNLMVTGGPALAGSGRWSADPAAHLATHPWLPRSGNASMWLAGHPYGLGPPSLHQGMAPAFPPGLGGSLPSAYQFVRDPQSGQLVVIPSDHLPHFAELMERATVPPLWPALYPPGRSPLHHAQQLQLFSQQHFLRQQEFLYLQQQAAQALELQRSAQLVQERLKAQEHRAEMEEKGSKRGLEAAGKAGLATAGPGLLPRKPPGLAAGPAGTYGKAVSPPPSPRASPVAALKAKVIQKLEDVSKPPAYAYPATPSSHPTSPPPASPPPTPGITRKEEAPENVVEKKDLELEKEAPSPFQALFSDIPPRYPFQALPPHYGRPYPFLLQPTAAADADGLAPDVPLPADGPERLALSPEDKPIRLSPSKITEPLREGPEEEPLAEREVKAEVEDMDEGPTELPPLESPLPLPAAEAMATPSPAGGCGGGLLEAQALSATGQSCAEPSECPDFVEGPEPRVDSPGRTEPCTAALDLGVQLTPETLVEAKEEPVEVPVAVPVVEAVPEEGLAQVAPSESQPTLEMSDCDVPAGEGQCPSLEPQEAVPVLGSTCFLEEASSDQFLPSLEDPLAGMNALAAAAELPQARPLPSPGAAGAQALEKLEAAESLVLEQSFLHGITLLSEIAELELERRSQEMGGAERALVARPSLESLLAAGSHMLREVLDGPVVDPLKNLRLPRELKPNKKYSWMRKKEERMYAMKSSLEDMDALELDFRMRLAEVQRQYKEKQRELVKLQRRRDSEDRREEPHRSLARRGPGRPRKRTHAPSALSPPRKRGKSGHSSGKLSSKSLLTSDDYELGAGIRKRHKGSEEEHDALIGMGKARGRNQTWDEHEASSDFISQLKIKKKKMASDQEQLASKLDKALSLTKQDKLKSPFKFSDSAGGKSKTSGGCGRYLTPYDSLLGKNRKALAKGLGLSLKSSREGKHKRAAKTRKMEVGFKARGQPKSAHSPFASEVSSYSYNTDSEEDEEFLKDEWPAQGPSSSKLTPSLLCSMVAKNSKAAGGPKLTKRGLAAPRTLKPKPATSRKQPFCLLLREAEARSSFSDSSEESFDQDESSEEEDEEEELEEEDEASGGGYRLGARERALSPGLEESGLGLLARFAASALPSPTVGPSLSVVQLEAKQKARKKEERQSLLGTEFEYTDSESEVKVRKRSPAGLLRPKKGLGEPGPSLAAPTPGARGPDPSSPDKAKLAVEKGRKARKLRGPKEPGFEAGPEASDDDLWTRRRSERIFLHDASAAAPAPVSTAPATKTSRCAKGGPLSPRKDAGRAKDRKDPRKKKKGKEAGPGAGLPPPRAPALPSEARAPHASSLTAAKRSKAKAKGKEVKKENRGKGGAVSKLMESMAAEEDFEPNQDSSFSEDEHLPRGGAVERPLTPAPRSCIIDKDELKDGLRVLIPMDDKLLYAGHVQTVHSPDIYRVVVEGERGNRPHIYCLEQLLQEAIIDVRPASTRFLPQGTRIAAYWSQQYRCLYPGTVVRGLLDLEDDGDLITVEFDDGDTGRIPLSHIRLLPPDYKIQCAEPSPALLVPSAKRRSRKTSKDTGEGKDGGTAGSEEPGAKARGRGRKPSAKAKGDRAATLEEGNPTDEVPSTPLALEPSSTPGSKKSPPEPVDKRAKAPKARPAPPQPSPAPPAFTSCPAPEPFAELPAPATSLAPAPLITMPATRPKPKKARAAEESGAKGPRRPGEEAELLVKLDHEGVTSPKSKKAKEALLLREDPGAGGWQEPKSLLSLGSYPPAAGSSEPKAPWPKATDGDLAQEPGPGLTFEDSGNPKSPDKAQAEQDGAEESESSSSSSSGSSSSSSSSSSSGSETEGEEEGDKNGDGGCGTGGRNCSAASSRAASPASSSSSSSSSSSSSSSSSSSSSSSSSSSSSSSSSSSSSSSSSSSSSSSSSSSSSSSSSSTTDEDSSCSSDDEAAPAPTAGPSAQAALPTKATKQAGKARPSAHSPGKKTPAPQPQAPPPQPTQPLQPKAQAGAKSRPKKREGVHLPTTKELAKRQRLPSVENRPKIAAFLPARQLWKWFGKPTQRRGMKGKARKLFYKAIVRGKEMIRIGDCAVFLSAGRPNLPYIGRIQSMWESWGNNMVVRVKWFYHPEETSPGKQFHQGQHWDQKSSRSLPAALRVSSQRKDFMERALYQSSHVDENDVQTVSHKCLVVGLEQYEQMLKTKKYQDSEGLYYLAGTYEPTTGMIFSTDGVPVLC
UniProt Q96B77: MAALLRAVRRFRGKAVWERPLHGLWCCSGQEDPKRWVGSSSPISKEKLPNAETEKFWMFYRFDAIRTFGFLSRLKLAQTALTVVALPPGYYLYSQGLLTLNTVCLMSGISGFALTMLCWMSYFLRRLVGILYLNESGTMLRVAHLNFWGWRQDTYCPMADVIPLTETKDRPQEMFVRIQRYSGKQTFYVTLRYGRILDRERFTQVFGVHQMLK
UniProt Q15785: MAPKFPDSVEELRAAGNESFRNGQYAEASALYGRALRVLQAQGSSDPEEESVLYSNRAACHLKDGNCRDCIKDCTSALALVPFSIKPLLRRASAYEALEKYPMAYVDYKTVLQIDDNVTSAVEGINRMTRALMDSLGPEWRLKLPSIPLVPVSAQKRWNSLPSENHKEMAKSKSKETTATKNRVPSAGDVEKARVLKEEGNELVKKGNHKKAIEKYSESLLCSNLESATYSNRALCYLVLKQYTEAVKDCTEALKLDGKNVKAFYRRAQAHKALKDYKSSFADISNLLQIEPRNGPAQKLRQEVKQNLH
UniProt Q12931: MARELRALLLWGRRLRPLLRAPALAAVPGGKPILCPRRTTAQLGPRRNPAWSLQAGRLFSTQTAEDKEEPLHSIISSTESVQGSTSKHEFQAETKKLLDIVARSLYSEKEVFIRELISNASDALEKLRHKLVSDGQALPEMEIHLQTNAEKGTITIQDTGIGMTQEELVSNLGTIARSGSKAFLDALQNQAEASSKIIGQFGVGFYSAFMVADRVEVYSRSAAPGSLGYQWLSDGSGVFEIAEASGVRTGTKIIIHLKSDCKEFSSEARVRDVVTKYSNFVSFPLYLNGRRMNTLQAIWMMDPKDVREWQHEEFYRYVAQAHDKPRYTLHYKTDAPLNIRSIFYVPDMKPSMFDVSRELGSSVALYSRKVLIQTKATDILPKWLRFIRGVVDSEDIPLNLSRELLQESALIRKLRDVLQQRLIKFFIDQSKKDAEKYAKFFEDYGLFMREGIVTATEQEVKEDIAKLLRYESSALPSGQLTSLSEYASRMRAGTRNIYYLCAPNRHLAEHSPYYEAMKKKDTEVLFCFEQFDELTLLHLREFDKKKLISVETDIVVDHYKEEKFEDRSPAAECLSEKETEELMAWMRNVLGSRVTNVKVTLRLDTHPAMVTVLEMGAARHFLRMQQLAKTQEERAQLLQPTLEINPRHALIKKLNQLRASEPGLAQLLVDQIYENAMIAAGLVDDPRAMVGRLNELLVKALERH
UniProt Q9NWD8: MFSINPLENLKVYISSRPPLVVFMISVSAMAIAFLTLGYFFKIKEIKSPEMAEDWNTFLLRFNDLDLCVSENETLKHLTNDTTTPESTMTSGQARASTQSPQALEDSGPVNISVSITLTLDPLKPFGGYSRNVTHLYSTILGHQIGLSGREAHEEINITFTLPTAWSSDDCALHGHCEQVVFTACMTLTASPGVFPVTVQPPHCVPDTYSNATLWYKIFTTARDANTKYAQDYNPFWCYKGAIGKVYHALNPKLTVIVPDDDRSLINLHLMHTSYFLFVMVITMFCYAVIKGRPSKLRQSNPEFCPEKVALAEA
UniProt Q3LXA3: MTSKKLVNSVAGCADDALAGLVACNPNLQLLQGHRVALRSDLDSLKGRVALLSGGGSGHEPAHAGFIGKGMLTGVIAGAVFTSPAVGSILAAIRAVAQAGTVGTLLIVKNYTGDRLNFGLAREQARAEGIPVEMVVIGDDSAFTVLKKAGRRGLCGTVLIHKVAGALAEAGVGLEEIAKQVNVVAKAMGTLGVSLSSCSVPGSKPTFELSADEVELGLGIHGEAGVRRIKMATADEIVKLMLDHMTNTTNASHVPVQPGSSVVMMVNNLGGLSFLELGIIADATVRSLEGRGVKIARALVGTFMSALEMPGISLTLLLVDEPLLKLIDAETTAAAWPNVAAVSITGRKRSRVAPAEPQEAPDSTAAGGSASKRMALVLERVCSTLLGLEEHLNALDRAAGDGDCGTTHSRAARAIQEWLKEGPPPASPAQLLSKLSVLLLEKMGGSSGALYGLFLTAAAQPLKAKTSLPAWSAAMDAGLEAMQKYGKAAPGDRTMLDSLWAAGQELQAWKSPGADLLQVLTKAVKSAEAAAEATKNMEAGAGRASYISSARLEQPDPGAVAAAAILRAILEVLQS

Columns and labels:
[1] = compound: ClCC(=O)N[C@@H]1CCCc2ccccc12; assay: log2 mean competition ratio of IA-DTB cysteine labelling (DMSO/compound) (log2 ratio); higher = stronger cysteine engagement by compound; conditions: treatment time: 4 h, cell line lysate: HEK293T
Method: (§1)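 IA-DTB competitive cysteine chemoproteomics in HEK293T RIPA lysate. Lysates were treated with compound 29 or 30 at 50 or 200 µM for 4 h, then IA-DTB (500 µM, 1 h), trypsin-digested, NeutrAvidin-enriched and analysed by diaPASEF. Competition ratio = intensity DMSO / intensity compound (n=4 treated, n=64 DMSO); binding: mean log2 CR ≥ 1 and p ≤ 0.05 plus QC filters. Target is the cysteine site.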

[2] = compound: ClCC(=O)N[C@H]1CCCc2ccccc12; assay: as above; conditions: treatment time: 4 h, cell line lysate: HEK293T
Method: as §1

Target	log2 mean competition ratio ([1]; 50 µM)	log2 mean competition ratio ([1]; 200 µM)	log2 mean competition ratio ([2]; 50 µM)	log2 mean competition ratio ([2]; 200 µM)
TRIM33 C786	-0.116	0.557	-0.692	0.176
TNFRSF10D C326 (UniProt Q9UBN6)	0.0898	0.0635	0.468	-0.0348
TK1 C3	-0.0835	-0.193	0.0832	0.18
TONSL C762 (UniProt Q96HA7)	0.17	0.23	0.0909	0.0846
TOP3B C190 (UniProt O95985)	0.0871	-0.0672	-0.0876	0.0931
TLN1 C286 (UniProt Q9Y490)	-0.00166	-0.136	-0.444	-0.206
TNRC18 C475 (UniProt O15417)	0.127	-0.169	0.251	-0.0815
TMEM186 C156 (UniProt Q96B77)	-0.183	-0.115	0.178	0.316
TOPBP1 C1200 (UniProt Q92547)	-0.3	0.152	0.0805	0.249
TOMM34 C250 (UniProt Q15785)	-0.231	-0.237	0.232	-0.136
TIMELESS C1126 (UniProt Q9UNS1)	-0.296	0.346	0.0509	0.0147
TLN1 C2161 (UniProt Q9Y490)	-0.375	-0.312	-0.118	-0.266
TRAP1 C501 (UniProt Q12931)	0.404	-0.0153	0.426	-0.0128
TMEM248 C305 (UniProt Q9NWD8)	-0.18	-0.0444	-0.213	0.236
TRAP1 C261 (UniProt Q12931)	-0.138	-0.079	-0.136	-0.0225
TKFC C404 (UniProt Q3LXA3)	-0.0782	0.0975	-0.157	0.111

Individual results from the list:
log2 mean competition ratio ([1]; 50 µM) with TKFC C404 (UniProt Q3LXA3) is entered as -0.0782
log2 mean competition ratio ([1]; 50 µM) with TRAP1 C261 (UniProt Q12931) is entered as -0.138
